# PubChem BioAssay AID485314 (National Center for Advancing Translational Sciences (NCATS), 2010)
# Hit rate of the full screen: of about 340,000 compounds, about 4,500 (1.3%) were called active. This list was built around the results that the source calls inconclusive (neither active nor inactive); the mix of calls is not that of the screen. Calls come from the whole dose curve; as a rule, active = well fitted inhibition curve with a large enough effect; inconclusive = small, poorly fitted or top-dose-only effect, or another doubt; inactive = no such curve, though single readings can be large or run the other way. A potency beside an inconclusive call is a rough fit, not a confirmed value.
# Biological target: DNA polymerase beta (Homo sapiens) (UniProt P06746)
# Experiment: qHTS Assay for Inhibitors of DNA Polymerase Beta
# Conditions: Pol beta primer extension/strand displacement, fluorescence kinetic; activity change, negative = inhibition: at 114 µM (top of the series)
# How it was run: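 Kinetic readout of DNA synthesis with strand displacement by Pol beta. Compound and 10 nM enzyme sit 15 min at room temperature; 50 nM substrate starts the reaction, read immediately and at 10 min.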
# % is set by controls: 0 for no effect and ±100 for the full control effect; potency is the fitted concentration of half-maximal effect.
Structure (SMILES),Potency,"activity change, negative = inhibition"
CCCOC(=O)c1ccc(NC(=O)C2CC(=O)N(c3ccc(C)cc3)C2)cc1 (stereo not given),"inconclusive: 0.282 µM [inhibitor, full curve, poor fit]",
Cc1ccc(C(CC(=O)N2CCOCC2)c2ccco2)cc1 (stereo not given),"inconclusive: 79.4 µM [inhibitor, single point]",
O=C(COC(=O)c1ccc(O)cc1)Nc1cccc(S(=O)(=O)N2CCCCC2)c1,,inconclusive: -40.1% [inhibitor]
COc1cc(C(c2c(C)[nH][nH]c2=O)c2c(C)[nH][nH]c2=O)ccc1OS(=O)(=O)c1ccccc1,inactive,
Cc1ccnn1CCC(=O)N1CCCC(CCC(=O)N2CCN(c3ccccn3)CC2)C1 (stereo not given),inactive,
COC(=O)c1ccccc1NC(=O)CCn1c(=O)c2cccn2c2cccnc21,inactive,
COc1ccc(C(=O)Nc2cc(-c3nc4ncccc4o3)ccc2C)cc1Br,,inconclusive: -64% [inhibitor]
COc1ccc2c(c1)OCC1=C2CCC2(C)C(=O)CC=C12 (stereo not given),"inconclusive: 28.2 µM [inhibitor, partial curve]",
O=C1/C(=C\c2ccccc2)CCc2c1[nH]c1ccccc21,"inconclusive: 89.1 µM [inhibitor, single point]",
Cc1ccc(C)c(-c2ccc(=O)n(C(C)C(=O)Nc3ccccc3C(F)(F)F)n2)c1 (stereo not given),inactive,
CC(=O)C1=C(C)Nc2ncnn2C1c1ccccc1OCc1ccccc1 (stereo not given),"inconclusive: 89.1 µM [inhibitor, single point]",
COc1cccc(-n2ccnc2SCC(=O)Nc2nc3ccc(C)cc3s2)c1,inactive,
O=C(Cn1nnc(-c2ccc3c(c2)OCO3)n1)NCc1ccco1,"inconclusive: 12.6 µM [inhibitor, partial curve]",
COc1ccc(CCNc2oc(/C=C/c3ccc(OC)c(OC)c3)nc2C#N)cc1,"inconclusive: 28.2 µM [inhibitor, partial curve, poor fit]",
COC(=O)c1c(NC(=O)c2ccoc2C)sc2c1CCC2,active: 22.4 µM,
Clc1ccc2c(N/N=C/c3cccc(Br)c3)ccnc2c1,active: 31.6 µM,
CCn1c(C)cc(/C=C2\NC(=O)N(Cc3ccc(Cl)cc3)C2=O)c1C,inactive,
CCOC(=O)C1(Cc2cccc(OC)c2)CCN(Cc2ccc(OC)c(OC)c2)CC1,"inconclusive: 28.2 µM [inhibitor, single point]",
C/C(=C\C(=O)c1ccc(Cl)cc1)NCc1ccc2c(c1)OCO2,"inconclusive: 0.891 µM [inhibitor, full curve, poor fit]",
O=C(NCC(c1cccnc1)N1CCOCC1)c1cccc(Cl)c1 (stereo not given),"inconclusive: 0.891 µM [inhibitor, full curve, poor fit]",

# Pulled by compound from the list above:
Structure (SMILES),Potency,"activity change, negative = inhibition"
Clc1ccc2c(N/N=C/c3cccc(Br)c3)ccnc2c1,active: 31.6 µM,
COc1ccc2c(c1)OCC1=C2CCC2(C)C(=O)CC=C12 (stereo not given),"inconclusive: 28.2 µM [inhibitor, partial curve]",
